The assay addresses T1, human organic anion transporting polypeptide 1A2 with N-terminal Flag tag (OATP1A2-N-flag) (human) (UniProt P46721).
T1 sequence: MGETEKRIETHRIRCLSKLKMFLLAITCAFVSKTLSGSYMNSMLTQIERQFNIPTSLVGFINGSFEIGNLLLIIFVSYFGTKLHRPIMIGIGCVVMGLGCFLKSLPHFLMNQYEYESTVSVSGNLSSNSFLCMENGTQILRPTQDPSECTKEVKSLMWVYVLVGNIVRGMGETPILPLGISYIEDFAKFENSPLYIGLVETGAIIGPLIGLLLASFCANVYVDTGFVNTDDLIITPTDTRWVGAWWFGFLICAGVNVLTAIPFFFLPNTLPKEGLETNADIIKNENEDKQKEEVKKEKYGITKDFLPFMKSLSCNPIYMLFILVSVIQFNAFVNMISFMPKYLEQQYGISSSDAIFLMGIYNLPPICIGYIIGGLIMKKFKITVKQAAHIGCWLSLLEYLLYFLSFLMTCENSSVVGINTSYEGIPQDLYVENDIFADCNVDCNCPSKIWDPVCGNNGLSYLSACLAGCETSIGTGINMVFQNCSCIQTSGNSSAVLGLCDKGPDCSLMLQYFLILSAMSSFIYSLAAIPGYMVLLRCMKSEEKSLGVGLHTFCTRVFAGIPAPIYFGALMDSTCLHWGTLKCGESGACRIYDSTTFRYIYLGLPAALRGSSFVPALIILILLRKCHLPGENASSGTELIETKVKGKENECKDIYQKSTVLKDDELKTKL
Kind of assay: co-IP; HEK-293 cells co-transfected with OATP1A2-N-flag and PDZK1-N-myc or NHERF1-N-myc; lysed 24 h later in 10 mM Tris/HCl, 10 mM NaCl, 0.5-1% Triton X-100, 2 mM EDTA, 10% glycerol, pH 7.5; precipitated with anti-flag antibody and protein G-agarose at 4°C, blotted with anti-myc.

Results are given in words; binding and its absence hold for the method and conditions named. In cells and extracts the contact can be indirect. Some results given as binding are weak or reduced against the parent protein; the word gives no strength. Tags and fused reporters may be left off the sequences shown.

B1: PDZK1 with N-terminal myc tag (PDZK1-N-myc) (protein, UniProt Q5T2W1 1-519)
chain: MTSTFNPRECKLSKQEGQNYGFFLRIEKDTEGHLVRVVEKCSPAEKAGLQDGDRVLRINGVFVDKEEHMQVVDLVRKSGNSVTLLVLDGDSYEKAVKTRVDLKELGQSQKEQGLSDNILSPVMNGGVQTWTQPRLCYLVKEGGSYGFSLKTVQGKKGVYMTDITPQGVAMRAGVLADDHLIEVNGENVEDASHEEVVEKVKKSGSRVMFLLVDKETDKRHVEQKIQFKRETASLKLLPHQPRIVEMKKGSNGYGFYLRAGSEQKGQIIKDIDSGSPAEEAGLKNNDLVVAVNGESVETLDHDSVVEMIRKGGDQTSLLVVDKETDNMYRLAHFSPFLYYQSQELPNGSVKEAPAPTPTSLEVSSPPDTTEEVDHKPKLCRLAKGENGYGFHLNAIRGLPGSFIKEVQKGGPADLAGLEDEDVIIEVNGVNVLDEPYEKVVDRIQSSGKNVTLLVCGKKAYDYFQAKKIPIVSSLADPLDTPPDSKEGIVVESNHDSHMAKERAHSTASHSSSNSEDTEM
Regarding B1, the binding entry is “binds”.

The values are drawn from publication PMC3984249.
